Drawing on article PMC7858277, this text covers binding for three molecules.

The chains behind the UniProt entries cited, without tags or fusion partners.
UniProt Q86TM6: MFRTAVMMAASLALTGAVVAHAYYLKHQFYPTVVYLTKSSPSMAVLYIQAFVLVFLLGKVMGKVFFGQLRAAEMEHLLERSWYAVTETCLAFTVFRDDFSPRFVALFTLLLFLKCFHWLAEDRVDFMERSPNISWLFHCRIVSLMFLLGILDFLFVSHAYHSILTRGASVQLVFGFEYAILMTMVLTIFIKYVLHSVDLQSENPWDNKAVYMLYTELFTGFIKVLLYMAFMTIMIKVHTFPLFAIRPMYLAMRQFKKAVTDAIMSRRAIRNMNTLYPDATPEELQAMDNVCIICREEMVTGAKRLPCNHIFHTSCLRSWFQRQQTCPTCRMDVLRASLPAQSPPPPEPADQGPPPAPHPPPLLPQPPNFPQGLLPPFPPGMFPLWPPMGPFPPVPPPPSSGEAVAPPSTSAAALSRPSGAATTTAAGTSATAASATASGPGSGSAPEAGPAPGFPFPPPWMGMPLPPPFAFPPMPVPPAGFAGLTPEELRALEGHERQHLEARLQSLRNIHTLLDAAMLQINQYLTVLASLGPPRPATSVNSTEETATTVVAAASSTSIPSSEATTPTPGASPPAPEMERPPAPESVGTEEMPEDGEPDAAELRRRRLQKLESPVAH

No constants are given. Whether binding was seen depends on the method and setting. In cells and extracts the contact can be indirect. Some results given as binding are weak or reduced against the parent protein; the word gives no strength. For part of these data: Tags and fused reporters may be left off the sequences shown.

In test [1] the target is T1, Flag-CPT2 (UniProt P23786).
T1 sequence: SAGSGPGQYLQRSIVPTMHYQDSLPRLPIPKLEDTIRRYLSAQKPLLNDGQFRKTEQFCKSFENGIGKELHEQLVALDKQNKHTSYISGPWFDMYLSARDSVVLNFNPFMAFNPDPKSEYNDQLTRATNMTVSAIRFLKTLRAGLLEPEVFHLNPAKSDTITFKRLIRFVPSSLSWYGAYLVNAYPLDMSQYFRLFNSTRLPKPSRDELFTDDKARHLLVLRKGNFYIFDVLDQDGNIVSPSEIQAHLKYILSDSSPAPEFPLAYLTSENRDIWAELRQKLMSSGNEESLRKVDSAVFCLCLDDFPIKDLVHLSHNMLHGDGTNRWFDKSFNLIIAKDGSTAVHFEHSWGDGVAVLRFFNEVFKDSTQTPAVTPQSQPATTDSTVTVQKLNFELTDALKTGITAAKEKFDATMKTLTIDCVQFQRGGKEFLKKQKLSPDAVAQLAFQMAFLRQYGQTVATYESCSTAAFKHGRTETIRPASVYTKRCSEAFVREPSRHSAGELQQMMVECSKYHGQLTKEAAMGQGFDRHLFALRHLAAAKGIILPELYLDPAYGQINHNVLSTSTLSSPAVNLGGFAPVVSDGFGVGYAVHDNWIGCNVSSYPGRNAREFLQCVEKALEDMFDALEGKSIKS
Kind of test: co-IP; HEK 293T cells transfected for 24 h with Flag-CPT2 and Myc-HRD1 alone or in combination; lysates (NETN buffer) immunoprecipitated with anti-Flag and anti-Myc; immunoblot with anti-Myc or anti-Flag.

The target in test [2] is HMG-CoA reductase degradation protein 1 (HRD1), endogenous (human (endogenous in MDA-MB-231)) (UniProt Q86TM6). Kind of test: co-IP; MDA-MB-231 cell lysates (NETN lysis buffer) immunoprecipitated with IgG or HRD1 antibody; immunoblot with HRD1, CPT2 or CPT1A antibody.
The target in test [3] is Myc-HRD1 (UniProt Q86TM6). Description: co-IP; HEK 293T cells transfected for 24 h with Flag-CPT2 and Myc-HRD1 alone or in combination; lysates (NETN buffer) immunoprecipitated with anti-Flag and anti-Myc; immunoblot with anti-Myc or anti-Flag.

Regarding “Myc-HRD1 (from UniProt Q86TM6 1-617) (enzyme)”, the binding entry in test [1] is given as “binds”.

B1: carnitine palmitoyltransferase 2 (CPT2), endogenous (enzyme, UniProt P23786 26-658)
chain: T1 sequence
With B1, in test [2], the binding entry is “binds”.

B2: Flag-CPT2 (enzyme, UniProt P23786 26-658)
chain: T1 sequence
Regarding B2, in test [3], the binding result is “binds”.
